Drawing on PMC11898277, this text covers binding for one substance.

The chains behind the UniProt entries cited, without tags or fusion partners. Residues count along the entry.
UniProt P29595, residues 1-76: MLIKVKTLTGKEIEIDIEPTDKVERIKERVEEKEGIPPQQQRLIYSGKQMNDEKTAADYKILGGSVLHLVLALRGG
UniProt Q80TT8: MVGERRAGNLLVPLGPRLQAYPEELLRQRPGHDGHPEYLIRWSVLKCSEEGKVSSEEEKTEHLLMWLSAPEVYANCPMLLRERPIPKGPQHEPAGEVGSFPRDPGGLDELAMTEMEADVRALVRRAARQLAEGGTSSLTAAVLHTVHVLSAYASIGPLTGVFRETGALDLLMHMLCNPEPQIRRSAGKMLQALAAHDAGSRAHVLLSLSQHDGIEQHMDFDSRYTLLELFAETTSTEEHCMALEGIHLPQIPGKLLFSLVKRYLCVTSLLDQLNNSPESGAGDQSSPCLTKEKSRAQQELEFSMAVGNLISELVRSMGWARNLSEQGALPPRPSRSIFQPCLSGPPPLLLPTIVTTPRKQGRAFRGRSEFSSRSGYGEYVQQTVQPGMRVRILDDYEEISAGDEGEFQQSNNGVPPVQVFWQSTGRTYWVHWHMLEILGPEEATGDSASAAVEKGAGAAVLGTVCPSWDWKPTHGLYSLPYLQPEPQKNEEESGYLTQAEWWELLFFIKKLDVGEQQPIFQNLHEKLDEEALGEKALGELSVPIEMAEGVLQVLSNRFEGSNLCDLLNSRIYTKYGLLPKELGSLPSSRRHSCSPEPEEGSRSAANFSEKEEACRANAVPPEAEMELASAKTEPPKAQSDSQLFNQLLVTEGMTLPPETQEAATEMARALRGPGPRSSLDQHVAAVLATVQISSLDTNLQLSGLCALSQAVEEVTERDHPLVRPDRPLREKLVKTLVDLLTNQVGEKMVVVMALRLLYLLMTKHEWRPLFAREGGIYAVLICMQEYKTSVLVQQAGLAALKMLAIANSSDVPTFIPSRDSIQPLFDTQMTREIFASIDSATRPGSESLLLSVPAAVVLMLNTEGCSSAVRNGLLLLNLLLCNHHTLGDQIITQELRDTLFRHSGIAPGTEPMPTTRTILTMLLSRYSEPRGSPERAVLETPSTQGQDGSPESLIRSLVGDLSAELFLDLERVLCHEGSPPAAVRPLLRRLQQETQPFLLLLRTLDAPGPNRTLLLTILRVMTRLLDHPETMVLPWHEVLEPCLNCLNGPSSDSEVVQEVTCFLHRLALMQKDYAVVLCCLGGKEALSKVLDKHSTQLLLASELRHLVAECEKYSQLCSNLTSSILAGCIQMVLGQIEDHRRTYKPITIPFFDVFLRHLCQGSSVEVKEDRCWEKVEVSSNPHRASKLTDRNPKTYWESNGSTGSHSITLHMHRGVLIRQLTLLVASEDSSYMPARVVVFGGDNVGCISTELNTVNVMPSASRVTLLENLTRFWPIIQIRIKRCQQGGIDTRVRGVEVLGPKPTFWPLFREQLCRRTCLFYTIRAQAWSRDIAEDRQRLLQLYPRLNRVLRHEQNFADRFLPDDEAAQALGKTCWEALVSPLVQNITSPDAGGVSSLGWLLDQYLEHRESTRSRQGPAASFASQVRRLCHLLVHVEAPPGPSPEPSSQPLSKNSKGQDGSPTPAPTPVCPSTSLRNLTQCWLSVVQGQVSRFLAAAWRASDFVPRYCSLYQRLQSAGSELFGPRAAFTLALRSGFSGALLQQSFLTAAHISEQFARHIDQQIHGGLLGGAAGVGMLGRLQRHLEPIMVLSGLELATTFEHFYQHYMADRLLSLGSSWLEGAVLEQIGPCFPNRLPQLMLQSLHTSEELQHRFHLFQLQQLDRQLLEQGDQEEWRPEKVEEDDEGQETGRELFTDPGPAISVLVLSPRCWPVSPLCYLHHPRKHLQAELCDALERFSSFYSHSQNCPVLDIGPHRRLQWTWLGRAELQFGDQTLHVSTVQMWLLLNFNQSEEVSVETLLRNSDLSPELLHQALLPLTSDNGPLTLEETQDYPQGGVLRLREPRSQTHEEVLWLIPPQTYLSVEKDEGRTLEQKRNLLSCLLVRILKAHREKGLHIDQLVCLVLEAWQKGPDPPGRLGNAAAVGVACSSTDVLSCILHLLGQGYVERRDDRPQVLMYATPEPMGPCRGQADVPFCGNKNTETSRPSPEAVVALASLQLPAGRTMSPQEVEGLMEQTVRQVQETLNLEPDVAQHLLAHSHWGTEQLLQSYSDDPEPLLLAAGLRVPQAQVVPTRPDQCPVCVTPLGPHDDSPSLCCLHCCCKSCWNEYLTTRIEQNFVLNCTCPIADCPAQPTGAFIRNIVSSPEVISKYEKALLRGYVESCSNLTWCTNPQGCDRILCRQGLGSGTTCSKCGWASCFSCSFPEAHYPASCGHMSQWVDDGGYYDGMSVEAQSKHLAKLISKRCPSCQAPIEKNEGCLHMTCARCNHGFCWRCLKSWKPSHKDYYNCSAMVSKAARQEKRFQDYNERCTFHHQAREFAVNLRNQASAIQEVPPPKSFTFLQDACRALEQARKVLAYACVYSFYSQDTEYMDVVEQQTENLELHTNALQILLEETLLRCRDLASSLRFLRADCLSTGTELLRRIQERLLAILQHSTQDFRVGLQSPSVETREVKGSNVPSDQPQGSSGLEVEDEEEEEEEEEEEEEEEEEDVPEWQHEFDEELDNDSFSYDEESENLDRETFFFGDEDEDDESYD

These are yes or no findings as the source states them, for the method shown. Binding seen in cells or lysates may run through a third protein. Some binding calls cover weakened binding; strength is not graded here.

The assay has as its target Neural precursor cell-expressed developmentally down-regulated 8 (NEDD8) (mouse (endogenous in testis)) (UniProt P29595). Kind of assay: co-IP; testis extracts of adult mice; precipitation with NEDD8 antibody or IgG, Protein A beads, immunoblot. On the technique in general: Immunoblotting shows a protein as a band on a membrane.

With CUL9 (from UniProt Q80TT8 1-2530), the binding entry is given as “binds”.
